Here are results for 2 substances from article PMC10582172.

Protein sequences, listed by entry. Tags and fused reporters are not part of them.
UniProt Q9V9J3: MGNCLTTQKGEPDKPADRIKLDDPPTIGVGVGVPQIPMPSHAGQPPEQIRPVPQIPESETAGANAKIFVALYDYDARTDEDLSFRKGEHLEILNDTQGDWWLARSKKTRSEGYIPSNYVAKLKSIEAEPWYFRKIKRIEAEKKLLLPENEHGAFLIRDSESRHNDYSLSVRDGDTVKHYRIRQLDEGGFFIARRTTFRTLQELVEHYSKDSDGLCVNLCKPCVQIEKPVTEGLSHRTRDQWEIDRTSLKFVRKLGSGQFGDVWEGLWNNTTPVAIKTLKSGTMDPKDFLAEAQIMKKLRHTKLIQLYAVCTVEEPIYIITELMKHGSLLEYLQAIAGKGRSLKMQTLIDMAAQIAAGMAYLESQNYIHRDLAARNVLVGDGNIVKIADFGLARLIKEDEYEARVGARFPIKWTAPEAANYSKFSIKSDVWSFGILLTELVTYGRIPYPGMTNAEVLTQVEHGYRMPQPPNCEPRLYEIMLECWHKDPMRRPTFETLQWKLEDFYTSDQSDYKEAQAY

These are yes or no findings as the source states them, for the method shown.

Test [1] concerns the target Drosophila Src42A, full-length (aa 1-517), autophosphorylated (Drosophila) (UniProt Q9V9J3). The test can be described thus: SEC-MALS; protein sample 0.2 mg/ml on Superdex 200 Increase 10/300 in 20 mM Tris, 150 mM NaCl, 1 mM DTT, 5% glycerol; unphosphorylated and autophosphorylated samples; both purified.
For test [2], the target named is Drosophila c-Src homolog Src42A, full-length (aa 1-517) (Drosophila) (UniProt Q9V9J3). The test is described as above.

As for “Drosophila Src42A, full-length (aa 1-517), autophosphorylated (from UniProt Q9V9J3 1-517)”, in test [1], the binding result is recorded as “no binding (tested: 0.2 mg/ml)”.

Regarding “Drosophila c-Src homolog Src42A, full-length (aa 1-517) (from UniProt Q9V9J3 1-517)”, in test [2], the binding entry is “no binding (tested: 0.2 mg/ml)”.
